Reference: doi:10.1101/2025.02.21.639583
Results are given in words; binding and its absence hold for the method and conditions named. Binding seen in cells or lysates may run through a third protein. A result given as binding can be weak or reduced; the word gives no strength. Sequences can lack the tags named with a protein.

Biological target: T1, Ldm1-GFP (Lipid Droplet Motility 1 / Yer085c, C-terminally GFP-tagged, TEF2 promoter) (S. cerevisiae) (UniProt P40058)
T1 sequence: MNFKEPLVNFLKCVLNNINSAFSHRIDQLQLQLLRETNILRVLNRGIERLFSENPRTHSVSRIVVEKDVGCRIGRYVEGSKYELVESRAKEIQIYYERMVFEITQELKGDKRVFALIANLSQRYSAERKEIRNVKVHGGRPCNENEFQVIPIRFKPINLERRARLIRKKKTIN
Assay: co-IP

binding: binds weakly
Substance: Pln1 (structural LD protein) (S. cerevisiae (endogenous in yeast))
